PubChem BioAssay AID1159584, Peter MacCallum Cancer Centre, 2016

Test: 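Knock-downs that harm CDH1-null cells more than parental MCF10A cells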 (primary screen)
Cell system: human MCF10A breast epithelial cells, parental and CDH1-null
Knock-down reagent: siRNA against human genes
Read-out: 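Cell viability by CellTiter-Glo ATP luminescence, each line scaled to the mean of mock wells across plates, then CDH1-null over parental ratio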
Direction: CDH1-null / parental viability ratio: higher = CDH1-null cells survive relatively better than parental
The deposit covers about 18,000 reagents; below is a random part of them. Further read-outs or replicates are left out here. No sequences are given here. Not given: the amount of reagent, the time to read-out.

CHST11 (carbohydrate sulfotransferase 11): CDH1-null / parental viability ratio = 0.87
TMEM68 (transmembrane protein 68): CDH1-null / parental viability ratio = 0.95
DTX2 (deltex E3 ubiquitin ligase 2): CDH1-null / parental viability ratio = 0.65
ATP1A1 (ATPase Na+/K+ transporting subunit alpha 1): CDH1-null / parental viability ratio = 0.84
MIEF1 (mitochondrial elongation factor 1): CDH1-null / parental viability ratio = 0.76
IL22RA1 (interleukin 22 receptor subunit alpha 1): CDH1-null / parental viability ratio = 0.7
MORN3 (MORN repeat containing 3): CDH1-null / parental viability ratio = 0.81
ITGB1BP2 (integrin subunit beta 1 binding protein 2): CDH1-null / parental viability ratio = 0.96
RPS11 (ribosomal protein S11): CDH1-null / parental viability ratio = 1
ZNF782 (zinc finger protein 782): CDH1-null / parental viability ratio = 0.97
TM4SF4 (transmembrane 4 L six family member 4): CDH1-null / parental viability ratio = 0.8
MYCL (MYCL proto-oncogene, bHLH transcription factor): CDH1-null / parental viability ratio = 1
C10orf120 (chromosome 10 open reading frame 120): CDH1-null / parental viability ratio = 1.14
ZNF565 (zinc finger protein 565): CDH1-null / parental viability ratio = 1.02
